The experiment concerns the target p62 (endogenous, granulosa cells) (mouse (endogenous in primary GCs)) (UniProt Q64337). Put plainly: co-IP; insoluble fractions of GCs with anti-p62 and anti-SKP2 antibodies; protein-A agarose beads, 4 °C; GCs (WT, si-SKP2) treated with or without miR-1246 enriched-EVs for 24 h.

The chains behind the UniProt entries cited, without tags or fusion partners.
UniProt Q9Z0Z3: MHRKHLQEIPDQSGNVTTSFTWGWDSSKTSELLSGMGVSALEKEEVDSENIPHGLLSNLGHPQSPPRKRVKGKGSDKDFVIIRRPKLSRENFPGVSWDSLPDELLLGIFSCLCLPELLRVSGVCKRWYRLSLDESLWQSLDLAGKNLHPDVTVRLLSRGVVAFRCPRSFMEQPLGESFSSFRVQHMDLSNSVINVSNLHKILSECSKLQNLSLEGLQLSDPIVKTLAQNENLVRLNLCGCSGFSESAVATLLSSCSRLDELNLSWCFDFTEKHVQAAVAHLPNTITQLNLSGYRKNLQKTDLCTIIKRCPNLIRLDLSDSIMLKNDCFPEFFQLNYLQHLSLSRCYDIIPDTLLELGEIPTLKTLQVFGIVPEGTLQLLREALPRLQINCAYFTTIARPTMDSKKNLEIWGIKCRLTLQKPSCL

Results are given in words; binding and its absence hold for the method and conditions named. Binding seen in cells or lysates may run through a third protein. Some results given as binding are weak or reduced against the parent protein; the word gives no strength.

The record followed here is PMC11884595.

Regarding “SKP2 (endogenous, granulosa cells) (from UniProt Q9Z0Z3 1-424)”, the binding result was “binds”.
